From US10398789B2, “Methods, compositions and kits for providing a therapeutic treatment” (priority 2010, dated 2019)
“Also recorded” adds a separate entry of the source. At least one structure is not confirmed: it was looked up by name or label, or the drawing left a doubt.

System: grade IV glioblastoma (GBM)
Experiment: Brain MRI tumor response, glioblastoma subject (Example 1)
Type: in vivo, human

## Cn1nnc2c(C(N)=O)ncn2c1=O [temozolomide]
Example 1, radiation with temozolomide, then 9 monthly 5-day cycles of temozolomide
  vision: further decline in vision
Example 1 GBM subject, first disease course, regimen as labelled
  tumor response on MRI: progression; also recorded: increased tumor size
